The source of these data is PMC12040169 (PLOS Biology, 2025).

Each structure is given as a SMILES string. The list shows a part of the results.

The test system of the experiment is T1, CTL2-GFP (C. trachomatis L2/434/Bu, GFP-expressing).
T1 construct: L2/434/Bu, GFP-expressing
Set-up: species or system HeLa; Intracellular C. trachomatis growth in HeLa cells, bulk GFP fluorescence relative to DMSO. The settings on record: bulk GFP, single well; 28.5 h, 10 µM; inhibitor.
Consider `Cc1ccc(-c2nnc(COC(=O)c3cc(O)nc4ccccc34)o2)cc1` [CBK269741], for which the “% of control remaining” value was 112.712%.
The same measure for `CS(=O)(=O)c1cccc(C(=O)n2c(=O)n(CC3CCCCC3)c3ccccc32)c1` [CBK106520]: 104.75%.
`CCOC(=O)c1c(NC(=O)CCN2CCCCC2)sc2c1CCCCC2` [CBK265319G]: the “% of control remaining” value is 121.159%.
Consider `Cc1nc(C)n(CCNC(=O)Cc2coc3cc(C)c(C)cc23)n1` [CBK282613], for which the “% of control remaining” value was 107.433%.
With `CCC(=O)Nc1ccc(-c2csc(N3CCSCC3)n2)cc1` [CBK306469], the “% of control remaining” value is on record as 108.065%.
As for `S=C(NCc1ccccc1)Nc1ccccc1` [CBK091617], the “% of control remaining” value is 95.9708%.
The value for `CCOc1ccc(C(=O)Nc2nc(-c3ccc(F)cc3)cs2)cc1` [CBK072020] was 113.979%; that for `O=C1C2C3C=CC(C3)C2C(=O)N1CCN1CCNCC1` (stereo not drawn) [CBK278185C] was 117.914%; that for `Nc1cc2cccnc2nc1-c1cccc2cccnc12` [CBK067609] was 107.018%.
The value for `COc1ccc(CCNC(=O)c2cc(-c3ccc(C)o3)nc3ccccc23)cc1OC` [CBK265486] was 92.5901%.
The value for `COc1cc(CNC(=O)N2CCN(CCc3ccccc3)CC2)cc(OC)c1OC` [CBK158910] was 108.739%; that for `CC(=O)c1ccccc1OCCOCCN1CCCC(C)C1` (stereo not drawn) [CBK269625C] was 100.58%; that for `COc1ncc(-c2cncc(Nc3cccc(C#N)c3)n2)c(OC)n1` [CBK066022] was 180.649%.
On to `CN(C)C(=O)c1ccc(-c2ncc(OCCN3CCOCC3)nc2N)cc1` [CBK145183], for which the “% of control remaining” value stood at 100%.
The same measure for `CNC(=S)N/C(=N/c1ccccc1)c1ccccc1` [CBK261037]: 99.3486%.
The value for `O=C(c1cc(F)c(F)cc1F)N1CCC2(CCN(Cc3cccc(C(F)(F)F)c3)C2)C1` (stereo not drawn) [CBK132130] was 119.857%.
The value for `Cc1cccc(-c2ncc(NC(=O)CCc3cccnc3)nc2-c2ccc(N)cc2)c1` [CBK036684] was 136.829%; that for `COc1ccc(NC(=O)CSc2nc(C)c(Cc3ccc(O)cc3)[nH]2)cc1` [CBK291171] was 134.071%.
Regarding `CC(CNC(=O)C(C)Oc1ccccc1)CN(C)C` (stereo not drawn) [CBK268658], the “% of control remaining” value came out at 128.01%.
The same measure for `O=C(NCCCNc1c(Cl)cccc1[N+](=O)[O-])c1ccc(F)cc1` [CBK264943]: 107.858%; for `O=C(O)/C=C/c1cccc(-c2cnc(N3CCOCC3)c3nccn23)c1` [CBK091263]: 100.659%; for `O=C(Cn1nnc(-c2ccccc2)n1)Nc1cccc([N+](=O)[O-])c1` [CBK263057]: 100%.
Regarding `CC(C)COC(=O)N1CCC(C(=O)NC(c2ccc(Cl)cc2)c2cnccn2)CC1` (stereo not drawn) [CBK059668], the “% of control remaining” value is listed as 142.32%.
The same measure for `O=C(c1ccc(F)cc1)N1CCC[C@@H]1Cn1c(=O)oc2ccccc21` [CBK284529]: 124.673%; for `O=S(=O)(c1ccc(Cl)s1)N1CCN(c2ccccc2Cl)CC1` [CBK045098]: 116.821%.
With `O=C1CNC(=O)C2(C/C=C/C[C@H]3COCC[C@H]3N1)CCN(C(=O)c1ccc(=O)[nH]n1)CC2` [CBK292161], the “% of control remaining” value was 127.276%.
The same measure for `CC1CN(CCC(=O)O)Cc2cc(Cl)ccc2O1` (stereo not drawn) [CBK286899]: 106.19%; for `CCN1CC2(CCN(Cc3cc(OC)c(OC)c(OC)c3)CC2)c2ccccc21` [CBK131477]: 102.667%.
The value for `CCN1CC2(CCN(Cc3c(F)cccc3F)CC2)c2ccccc21` [CBK136986] was 108.062%; that for `COc1ccc(CCNC(=O)Cn2ccc(C3CCCNC3)n2)cc1` (stereo not drawn) [CBK304444] was 103.803%.
The same measure for `CC(=O)N1CCN(c2ncnc3c2nnn3-c2ccccc2)CC1` [CBK287753]: 101.234%; for `COc1ccc(CCN2C(=O)CC(Nc3ccc(N4CCOCC4)cc3)C2=O)cc1OC` (stereo not drawn) [CBK266322]: 176.933%; for `CCCc1ccc(S(=O)(=O)Nc2ccccc2C(=O)O)cc1` [CBK042366]: 100%.
Consider `O=C1NCCCC12CCN(Cc1cccs1)CC2` [CBK285346], for which the “% of control remaining” value is 140.551%.
The value for `O=C(NCCO)c1cccc(-c2cncc(N3CCN(Cc4ccccn4)CC3)n2)c1` [CBK065784] was 151.889%.
Turning to `COc1ccc(Cc2n[nH]c(=O)n2-c2ccccc2)cc1` [CBK000112], the “% of control remaining” value is recorded as 166.655%.
The same measure for `CC(C)(C)C1CCC(OCC(O)CN2CCN(CCO)CC2)CC1` (stereo not drawn) [CBK278263C]: 130.999%.
In the case of `COc1cc(F)cc(OC2CCNCC2)c1NC(=O)C1=CC(=O)CC(C)(C)O1` [CBK050352T], the “% of control remaining” value stood at 129.857%.
As for `O=C(NC(c1ccc(Cl)cc1)c1ccsc1)C1CCN(C(=O)Oc2ccc(Cl)cc2)CC1` (stereo not drawn) [CBK060044], the “% of control remaining” value was 100%.
For `COc1cccc(C2CC(=O)c3c(ccc4ccccc34)N2)c1OC` (stereo not drawn) [CBK262971], the “% of control remaining” value is 121.106%.
Regarding `CS(=O)(=O)Nc1nccnc1-c1ccc2c(c1)OCO2` [CBK050934], the “% of control remaining” value came out at 124.081%.
The same measure for `CS(=O)(=O)c1cc(Br)cc(C(=O)NCCNc2cnccn2)c1F` [CBK305731]: 115.969%; for `CC(=O)c1sccc1NS(=O)(=O)c1ccccc1` [CBK038384]: 111.158%; for `CCCC/C=C/c1cnc2[nH]c(=O)n(CC(C)C)c2n1` [CBK064225]: 153.954%.
The same measure for `COc1ccc(-c2nnn(C3CCNCC3)n2)cc1OC` [CBK269870C]: 136.307%; for `CS(=O)(=O)N1CCN(c2ccccc2NC(=O)CSc2ccc(Cl)cc2)CC1` [CBK267607]: 120.027%; for `COc1cc(CC(=O)Nc2cccc(-c3ccc(SC(F)(F)F)cc3)c2)cc(OC)c1OC` [CBK132426]: 104.595%.
Take `O=S(=O)(NCc1ccc(F)cc1Cl)c1ccc(Cl)c(Cl)c1` [CBK043785]: the “% of control remaining” value was 93.2277%.
Take `Cc1cc(S(=O)(=O)Nc2ccc3[nH]ccc3c2)c(C)o1` [CBK155743]: the “% of control remaining” value was 108.758%.
The same measure for `Cc1cc(Oc2ccc(Cl)cc2Cl)nc(OCC#N)n1` [CBK019232]: 122.115%; for `O=c1[nH]ccn1CCNc1ccc(-c2cccc3cccnc23)cn1` [CBK037658]: 128.379%.
